In article PMC5829831, “Structural Basis for DNA Recognition by the Two-Component Response Regulator RcsB” (mBio, 2018):
No signal at the amounts used counts as a negative. Where a protein sequence is shown, tags need not be part of it.

Legend:
[1] = biological target: T1, RcsB (Escherichia coli str. K-12 substr. MG1655) (UniProt P0DMC7); experiment: SPR; details: data not shown, phosphorylation state not specified; SPR: 10 mM Tris-HCl pH 8.3, 150 mM NaCl, 0.5 mM TCEP, 25 C; recombinant protein; residues 1-216; protein details: N-terminal 6xHis (pCA24n, ASKA clone)
T1 sequence (looked up): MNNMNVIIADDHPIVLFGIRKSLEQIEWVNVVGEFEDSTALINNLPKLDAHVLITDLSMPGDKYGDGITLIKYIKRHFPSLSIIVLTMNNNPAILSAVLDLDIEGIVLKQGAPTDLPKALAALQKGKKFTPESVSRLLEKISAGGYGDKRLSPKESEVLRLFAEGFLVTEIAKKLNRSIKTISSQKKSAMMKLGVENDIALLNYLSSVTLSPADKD

[2] = biological target: T1, RcsB (Escherichia coli str. K-12 substr. MG1655); experiment: SEC-MALS; details: data not shown, phosphorylation state not specified; recombinant protein; residues 1-216; protein details: N-terminal 6xHis (pCA24n, ASKA clone)

## TTTAGGAAAAATCTTAGA (double strand) [DNA18, biotinylated]
[1]
  binding result: no binding

## TTTAGGAAAAATCTTAGA (double strand) [DNA18 (flhDC RcsAB box)]
[2]
  binding result: no binding
